Assay results from patent US20130231346A1, “METHODS OF TREATING CANCER” (GLAXOSMITHKLINE INTELLECTUAL PROPERTY (NO.2) LIMITED, priority 2010, published 2013).
For at least one compound, name, drawing or mass did not settle the structure.

Test system: RAS-mutant NSCLC cell lines
Assay: Inhibition of cell growth (CellTiter-Glo) in panel of RAS-mutant NSCLC cell lines
Conditions: agent alone, cell growth inhibition and apoptosis

## Cc1nc(Nc2ncc(C(=O)Nc3c(C)cccc3Cl)s2)cc(N2CCN(CCO)CC2)n1 [Dasatinib]
  Single agent activity (in words): little or no activity
